Consider one sequence from paper PMC5996148.

What all share (experiment): protein microarray (ProtoArray v5.0), streptavidin-Alexa Fluor 647
What all share (settings): 3'-biotin; 20 mM Tris (pH 7.5), 5 mM MgCl2, 100 mM KCl, 0.1% Tween-20, A/T-rich and random oligonucleotide blockers; temperature not stated; high values mean tight binding

For test [1], the system named is ARHGDIA (human).
Test [2] deals with ARHGDIB (human).
Test [3] relates to ARHGEF16 (human).
Test [4] relates to ARID3B (human).
In test [5] the test system is ARL1 (human).
The target of test [6] is T1, ARL15 (UniProt Q9NXU5).
T1 sequence: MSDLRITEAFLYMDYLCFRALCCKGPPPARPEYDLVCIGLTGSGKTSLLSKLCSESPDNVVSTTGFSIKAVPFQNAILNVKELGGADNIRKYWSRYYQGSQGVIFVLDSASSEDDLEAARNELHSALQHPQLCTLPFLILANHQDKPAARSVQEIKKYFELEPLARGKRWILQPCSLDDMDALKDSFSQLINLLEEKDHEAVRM

The subject of test [7] is ARL2 (human).
For test [8], the system named is ARL3 (human).
For test [9], the system named is ARL5A (human).
For test [10], the system named is ARL5B (human).

This is one part of the list. For some of these results: The source does not settle which construct or isoform was used.

As to “GGGAGGCTGAGGCAGG [G4-1 biotinylated (PQS2)]”, the binding signal is -0.331 z-score in test [1]; -0.335 z-score in test [2]; -0.308 z-score in test [3]; -0.352 z-score in test [4]; -0.331 z-score in test [5]; -0.26 z-score in test [6]. Also, the binding signal in test [7] is -0.303 z-score; in test [8], -0.335 z-score; in test [9], -0.357 z-score; in [10], -0.327 z-score.
